This list holds what a sample rich in targets with a hit left over. The data scatter; read single values as rough. Only a part is listed here, and it is no random draw.

The chains behind the UniProt entries cited, without tags or fusion partners. Where a name states a change or a piece, a line headed by the entry shows the natural chain unless it says otherwise.
UniProt Q92785, whole entry, looked up: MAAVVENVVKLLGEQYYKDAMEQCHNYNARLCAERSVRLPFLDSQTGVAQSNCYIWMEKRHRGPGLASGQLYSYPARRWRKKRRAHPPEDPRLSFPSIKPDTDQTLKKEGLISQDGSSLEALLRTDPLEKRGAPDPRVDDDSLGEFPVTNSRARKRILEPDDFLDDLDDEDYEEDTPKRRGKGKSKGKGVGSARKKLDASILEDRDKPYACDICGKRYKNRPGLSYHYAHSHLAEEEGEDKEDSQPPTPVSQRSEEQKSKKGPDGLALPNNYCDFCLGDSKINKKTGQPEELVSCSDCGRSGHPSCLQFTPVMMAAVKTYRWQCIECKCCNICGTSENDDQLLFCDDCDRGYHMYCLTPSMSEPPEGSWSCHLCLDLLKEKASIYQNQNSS
UniProt Q92692, whole entry: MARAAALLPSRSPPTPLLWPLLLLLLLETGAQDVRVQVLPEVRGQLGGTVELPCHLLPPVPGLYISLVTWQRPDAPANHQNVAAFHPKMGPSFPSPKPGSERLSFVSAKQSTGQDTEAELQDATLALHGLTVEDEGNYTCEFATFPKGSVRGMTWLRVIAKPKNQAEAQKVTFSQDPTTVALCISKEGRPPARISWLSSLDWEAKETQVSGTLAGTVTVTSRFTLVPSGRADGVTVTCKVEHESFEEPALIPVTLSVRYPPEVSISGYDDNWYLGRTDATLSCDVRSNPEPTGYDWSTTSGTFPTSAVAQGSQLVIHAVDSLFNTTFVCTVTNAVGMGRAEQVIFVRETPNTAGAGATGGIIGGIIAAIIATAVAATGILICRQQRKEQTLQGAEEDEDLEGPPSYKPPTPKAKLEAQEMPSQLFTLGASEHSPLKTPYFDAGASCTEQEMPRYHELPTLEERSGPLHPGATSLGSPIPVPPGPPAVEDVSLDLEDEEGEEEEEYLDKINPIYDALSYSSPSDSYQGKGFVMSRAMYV
UniProt Q92598: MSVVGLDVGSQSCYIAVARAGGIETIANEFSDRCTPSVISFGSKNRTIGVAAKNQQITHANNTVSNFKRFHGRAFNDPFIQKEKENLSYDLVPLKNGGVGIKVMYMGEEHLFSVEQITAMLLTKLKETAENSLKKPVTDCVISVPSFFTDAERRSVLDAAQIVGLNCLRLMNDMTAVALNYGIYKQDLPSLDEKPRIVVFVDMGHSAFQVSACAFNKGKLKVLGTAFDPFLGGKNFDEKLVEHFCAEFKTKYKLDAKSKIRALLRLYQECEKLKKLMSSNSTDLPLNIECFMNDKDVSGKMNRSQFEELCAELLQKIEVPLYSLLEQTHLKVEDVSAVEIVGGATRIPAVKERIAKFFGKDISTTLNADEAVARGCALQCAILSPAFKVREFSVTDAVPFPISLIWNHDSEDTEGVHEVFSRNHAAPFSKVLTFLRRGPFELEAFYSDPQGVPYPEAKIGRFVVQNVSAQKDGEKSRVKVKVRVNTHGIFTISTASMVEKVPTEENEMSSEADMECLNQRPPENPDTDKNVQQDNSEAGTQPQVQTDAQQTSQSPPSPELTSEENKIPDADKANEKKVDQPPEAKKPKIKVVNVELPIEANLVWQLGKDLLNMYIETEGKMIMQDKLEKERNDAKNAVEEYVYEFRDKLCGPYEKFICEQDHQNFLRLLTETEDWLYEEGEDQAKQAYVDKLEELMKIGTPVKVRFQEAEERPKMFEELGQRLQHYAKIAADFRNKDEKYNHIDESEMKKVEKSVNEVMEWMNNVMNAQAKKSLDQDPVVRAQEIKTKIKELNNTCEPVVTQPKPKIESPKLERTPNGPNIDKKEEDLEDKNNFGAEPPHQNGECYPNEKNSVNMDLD
UniProt Q969V6: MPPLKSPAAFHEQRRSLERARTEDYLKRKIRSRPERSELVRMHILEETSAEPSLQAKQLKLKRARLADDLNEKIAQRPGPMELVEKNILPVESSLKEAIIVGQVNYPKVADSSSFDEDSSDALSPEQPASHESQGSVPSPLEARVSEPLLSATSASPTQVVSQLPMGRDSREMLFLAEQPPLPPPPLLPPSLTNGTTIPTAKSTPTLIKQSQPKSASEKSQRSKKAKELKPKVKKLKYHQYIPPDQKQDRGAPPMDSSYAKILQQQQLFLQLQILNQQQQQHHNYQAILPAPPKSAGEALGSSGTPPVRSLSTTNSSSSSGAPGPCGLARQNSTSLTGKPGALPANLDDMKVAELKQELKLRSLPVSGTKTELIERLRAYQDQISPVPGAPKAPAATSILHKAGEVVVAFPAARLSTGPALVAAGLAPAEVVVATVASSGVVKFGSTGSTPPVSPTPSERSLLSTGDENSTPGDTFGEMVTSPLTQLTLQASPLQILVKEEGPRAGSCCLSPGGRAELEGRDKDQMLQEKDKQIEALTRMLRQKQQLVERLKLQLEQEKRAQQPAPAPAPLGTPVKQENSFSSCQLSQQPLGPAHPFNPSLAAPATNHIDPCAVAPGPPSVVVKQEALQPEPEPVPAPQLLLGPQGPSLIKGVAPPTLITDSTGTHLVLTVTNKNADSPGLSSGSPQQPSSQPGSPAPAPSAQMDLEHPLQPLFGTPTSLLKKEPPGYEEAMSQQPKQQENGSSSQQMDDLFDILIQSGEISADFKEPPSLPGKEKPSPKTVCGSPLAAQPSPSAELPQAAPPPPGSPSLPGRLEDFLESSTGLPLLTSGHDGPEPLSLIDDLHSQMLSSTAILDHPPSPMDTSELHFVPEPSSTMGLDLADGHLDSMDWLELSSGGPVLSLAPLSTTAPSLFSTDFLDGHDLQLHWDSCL
UniProt Q96B54: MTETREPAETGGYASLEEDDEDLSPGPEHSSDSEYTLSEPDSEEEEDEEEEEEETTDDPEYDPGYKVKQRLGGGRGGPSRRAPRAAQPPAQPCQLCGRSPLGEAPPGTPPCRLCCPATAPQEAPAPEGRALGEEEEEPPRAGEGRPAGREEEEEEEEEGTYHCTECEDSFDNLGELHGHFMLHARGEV
UniProt Q96GS4: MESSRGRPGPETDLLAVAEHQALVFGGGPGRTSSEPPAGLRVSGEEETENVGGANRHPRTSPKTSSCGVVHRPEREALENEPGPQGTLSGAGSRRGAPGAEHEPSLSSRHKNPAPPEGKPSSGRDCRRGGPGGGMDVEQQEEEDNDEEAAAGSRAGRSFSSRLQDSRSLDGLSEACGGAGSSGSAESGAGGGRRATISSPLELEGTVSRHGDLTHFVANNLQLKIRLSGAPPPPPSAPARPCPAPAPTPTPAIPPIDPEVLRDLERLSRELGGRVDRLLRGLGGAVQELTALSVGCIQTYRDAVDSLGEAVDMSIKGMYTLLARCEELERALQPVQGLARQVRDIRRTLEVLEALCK
UniProt Q96CS3: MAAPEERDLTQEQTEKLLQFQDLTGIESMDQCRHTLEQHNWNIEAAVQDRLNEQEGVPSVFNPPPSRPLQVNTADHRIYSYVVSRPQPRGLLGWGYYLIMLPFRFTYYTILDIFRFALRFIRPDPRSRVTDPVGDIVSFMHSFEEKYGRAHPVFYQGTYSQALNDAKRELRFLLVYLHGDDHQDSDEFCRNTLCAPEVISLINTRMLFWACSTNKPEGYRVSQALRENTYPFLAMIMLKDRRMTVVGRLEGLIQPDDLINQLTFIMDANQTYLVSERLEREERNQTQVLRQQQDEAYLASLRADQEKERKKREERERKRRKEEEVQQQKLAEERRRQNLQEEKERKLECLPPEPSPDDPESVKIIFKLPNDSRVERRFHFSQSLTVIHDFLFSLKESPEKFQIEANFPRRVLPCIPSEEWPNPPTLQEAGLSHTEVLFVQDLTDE
UniProt Q92797: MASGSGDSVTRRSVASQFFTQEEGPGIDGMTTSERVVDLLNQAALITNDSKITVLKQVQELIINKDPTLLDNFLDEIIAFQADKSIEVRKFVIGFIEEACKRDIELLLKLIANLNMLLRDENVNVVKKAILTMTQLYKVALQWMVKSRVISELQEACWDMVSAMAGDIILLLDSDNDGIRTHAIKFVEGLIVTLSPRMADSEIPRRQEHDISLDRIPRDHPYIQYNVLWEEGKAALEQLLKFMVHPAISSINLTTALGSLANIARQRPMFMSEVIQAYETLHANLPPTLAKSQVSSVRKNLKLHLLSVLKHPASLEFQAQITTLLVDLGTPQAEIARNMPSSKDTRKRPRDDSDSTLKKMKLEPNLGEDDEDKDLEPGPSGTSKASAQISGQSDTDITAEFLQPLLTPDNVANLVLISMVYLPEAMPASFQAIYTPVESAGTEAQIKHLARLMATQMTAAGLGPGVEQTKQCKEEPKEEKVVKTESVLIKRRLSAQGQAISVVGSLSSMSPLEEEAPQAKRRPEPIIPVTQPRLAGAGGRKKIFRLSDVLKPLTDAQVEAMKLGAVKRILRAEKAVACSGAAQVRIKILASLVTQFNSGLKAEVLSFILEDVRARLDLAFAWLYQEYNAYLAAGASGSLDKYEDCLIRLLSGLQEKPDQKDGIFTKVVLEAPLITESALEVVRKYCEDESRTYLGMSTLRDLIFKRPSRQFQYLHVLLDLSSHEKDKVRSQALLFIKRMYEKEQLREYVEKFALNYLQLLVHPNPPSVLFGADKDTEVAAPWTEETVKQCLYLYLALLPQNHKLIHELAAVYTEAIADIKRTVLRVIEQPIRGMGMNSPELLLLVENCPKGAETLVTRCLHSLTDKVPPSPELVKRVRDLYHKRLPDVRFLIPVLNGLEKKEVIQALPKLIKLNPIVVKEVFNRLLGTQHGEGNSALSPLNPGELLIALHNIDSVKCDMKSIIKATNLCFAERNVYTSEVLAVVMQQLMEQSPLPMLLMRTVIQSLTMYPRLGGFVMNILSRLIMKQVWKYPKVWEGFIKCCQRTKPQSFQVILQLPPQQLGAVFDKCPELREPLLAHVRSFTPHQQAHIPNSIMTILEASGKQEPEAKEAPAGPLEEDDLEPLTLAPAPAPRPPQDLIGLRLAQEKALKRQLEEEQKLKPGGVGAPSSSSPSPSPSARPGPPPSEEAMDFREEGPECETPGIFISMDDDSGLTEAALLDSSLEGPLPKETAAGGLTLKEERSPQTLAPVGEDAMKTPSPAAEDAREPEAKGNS
UniProt Q96FS4: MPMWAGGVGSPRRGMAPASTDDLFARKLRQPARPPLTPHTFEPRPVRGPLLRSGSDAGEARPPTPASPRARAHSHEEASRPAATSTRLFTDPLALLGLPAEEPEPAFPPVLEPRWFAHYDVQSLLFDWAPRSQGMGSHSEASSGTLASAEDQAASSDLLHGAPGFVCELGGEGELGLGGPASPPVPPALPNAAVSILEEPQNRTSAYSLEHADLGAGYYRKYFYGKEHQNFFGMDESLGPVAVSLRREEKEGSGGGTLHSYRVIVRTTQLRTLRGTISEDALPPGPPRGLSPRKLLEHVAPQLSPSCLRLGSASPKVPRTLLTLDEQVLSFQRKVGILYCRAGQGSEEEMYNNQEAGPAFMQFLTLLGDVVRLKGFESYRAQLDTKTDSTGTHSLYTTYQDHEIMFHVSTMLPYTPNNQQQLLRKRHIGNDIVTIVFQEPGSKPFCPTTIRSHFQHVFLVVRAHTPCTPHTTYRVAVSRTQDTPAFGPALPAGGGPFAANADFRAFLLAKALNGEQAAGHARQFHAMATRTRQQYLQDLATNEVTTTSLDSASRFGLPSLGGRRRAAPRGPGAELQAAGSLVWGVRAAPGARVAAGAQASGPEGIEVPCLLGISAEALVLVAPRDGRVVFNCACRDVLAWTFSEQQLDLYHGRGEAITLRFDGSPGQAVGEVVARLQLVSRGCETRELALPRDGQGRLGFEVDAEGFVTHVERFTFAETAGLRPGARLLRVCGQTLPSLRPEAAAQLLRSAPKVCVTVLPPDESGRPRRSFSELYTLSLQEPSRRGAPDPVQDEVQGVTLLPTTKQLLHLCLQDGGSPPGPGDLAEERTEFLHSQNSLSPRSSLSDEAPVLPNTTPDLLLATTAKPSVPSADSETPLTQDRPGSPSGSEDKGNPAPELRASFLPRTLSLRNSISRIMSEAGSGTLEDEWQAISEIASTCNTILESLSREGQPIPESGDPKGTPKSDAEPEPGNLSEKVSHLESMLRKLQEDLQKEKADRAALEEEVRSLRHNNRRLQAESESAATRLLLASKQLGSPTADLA
UniProt Q96C36: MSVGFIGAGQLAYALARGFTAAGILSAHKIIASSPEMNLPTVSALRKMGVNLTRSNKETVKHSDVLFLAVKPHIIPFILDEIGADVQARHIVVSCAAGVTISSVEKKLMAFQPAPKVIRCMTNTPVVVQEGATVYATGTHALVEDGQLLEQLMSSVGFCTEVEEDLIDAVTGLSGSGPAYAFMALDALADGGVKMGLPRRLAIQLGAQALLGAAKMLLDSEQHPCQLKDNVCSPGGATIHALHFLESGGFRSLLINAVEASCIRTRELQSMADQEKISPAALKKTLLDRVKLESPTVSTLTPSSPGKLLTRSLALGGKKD

Compound in the test: COC(=O)/C=C/c1ccccc1 [methyl cinnamate]
Kind of test: log2 ratio of iodoacetamide-alkyne labeling of the cysteine site, DMSO over compound (competition); higher = stronger covalent engagement of the cysteine by the compound, active = 1 or more. The following applies: 500 µM; treatment time 1 h; system: HEK293T cell lysate. The essentials: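 Electrophile (500 µM) or vehicle was added to HEK293T lysate (2 mg/mL) for 1 h at ambient temperature before iodoacetamide alkyne labelling (1 h) and click coupling to sCIP-TMT reagents. After pooling, overnight trypsin digestion at 37 °C, streptavidin enrichment and acid elution, peptides were measured by Orbitrap Eclipse LC-MS/MS with FAIMS and quantified in FragPipe. Each cysteine's log2 competition ratio compares mean control-channel with mean compound-channel reporter intensity, control over compound. Data came from duplicate channels across three replicates, excluding cysteines quantified in only one replicate.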
In the case of DPF2 C53 (UniProt Q92785), the “log2 ratio of iodoacetamide-alkyne labeling” value (shortened to “log2 ratio”) was inactive: -0.0418. Under APIP C97 (UniProt Q96GX9) stands inactive: 0.152; under USP7 C223 (UniProt Q93009), inactive: -0.0788.

Regarding NECTIN2 C446 (UniProt Q92692), the “log2 ratio” value was inactive: 0.0831. For the target Sirt1 C380 (UniProt Q96EB6), the “log2 ratio” value was inactive: 0.512. For GBF1 C613 (UniProt Q92538) the value was inactive: 0.419; for PHF3 C1631 (UniProt Q92576), inactive: 0.42. For the target RPL36AL C77 (UniProt Q969Q0), the “log2 ratio” value was inactive: 0.108.

Regarding DPF2 C306 (UniProt Q92785), the “log2 ratio” value was inactive: 0.00141. Consider HSPH1 C310 (UniProt Q92598), for which the “log2 ratio” value was inactive: 0.133. Turning to FLYWCH2 C132 (UniProt Q96CP2), the “log2 ratio” value was inactive: -0.0543. Under NRBF2 C126 (UniProt Q96F24) stands inactive: 0.307; under UniProt Q969V6_C326, inactive: 0.347; under UniProt Q92841_C270, inactive: 0.0872.

Turning to PHF3 C627 (UniProt Q92576), the “log2 ratio” value was inactive: 0.234. PDLIM5 C213 (UniProt Q96HC4): the “log2 ratio” value is inactive: 0.373.

On to ZNF428 C115 (UniProt Q96B54), for which the “log2 ratio” value was inactive: 0.0995. With LPP C364 (UniProt Q93052), the “log2 ratio” value is inactive: 0.26. With TUBGCP3 C17 (UniProt Q96CW5), the “log2 ratio” value is inactive: 0.515. For ZNF428 C114 (UniProt Q96B54), the “log2 ratio” value is inactive: 0.128.

In the case of THOC1 C396 (UniProt Q96FV9), the “log2 ratio” value was inactive: 0.227. Consider UniProt Q96GS4_C176, for which the “log2 ratio” value was inactive: 0.314. With AKAP1 C389 (UniProt Q92667), the “log2 ratio” value is inactive: 0.59. Under UniProt Q92616_C1692 stands inactive: -0.284; under DPF2 C298 (UniProt Q92785), inactive: 0.0738; under FAF2 C414 (UniProt Q96CS3), inactive: 0.00227. With UniProt Q92786_C300, the “log2 ratio” value is inactive: 0.344.

As to AKT1S1 C44 (UniProt Q96B36), the “log2 ratio” value was inactive: 0.21. Under KAT5 C11 (UniProt Q92993) stands inactive: 0.239; under CREBBP C1200 (UniProt Q92793), inactive: 0.143. Under SYMPK C848 (UniProt Q92797) stands inactive: 0.14; under SIPA1 C732 (UniProt Q96FS4), inactive: 0.117. Take ZNF428 C93 (UniProt Q96B54): the “log2 ratio” value was inactive: 0.251. Consider MRPL53 C21 (UniProt Q96EL3), for which the “log2 ratio” value is inactive: -0.0143.

For the target RAD50 C1302 (UniProt Q92878), the “log2 ratio” value is inactive: 0.24. Under RAD50 C102 (UniProt Q92878) stands inactive: 0.715. Under UniProt Q92841_C298 stands inactive: 0.203; under PYCR2 C262 (UniProt Q96C36), inactive: 0.148.

The values above are taken from the supplement of paper PMC11006884.
